Test results taken from paper PMC7059865.
No constants are given. Whether binding was seen depends on the method and setting. Some results given as binding are weak or reduced against the parent protein; the word gives no strength. Where a sequence is shown, tags or fusion partners need not be part of it.

Biological target: T1, Arabidopsis VPS38 (Vacuolar Protein Sorting-38 subunit of the class-III PtdIns-3 kinase complex), fused to the GAL4 DNA-binding domain (Arabidopsis) (UniProt Q8S9J3)
T1 sequence: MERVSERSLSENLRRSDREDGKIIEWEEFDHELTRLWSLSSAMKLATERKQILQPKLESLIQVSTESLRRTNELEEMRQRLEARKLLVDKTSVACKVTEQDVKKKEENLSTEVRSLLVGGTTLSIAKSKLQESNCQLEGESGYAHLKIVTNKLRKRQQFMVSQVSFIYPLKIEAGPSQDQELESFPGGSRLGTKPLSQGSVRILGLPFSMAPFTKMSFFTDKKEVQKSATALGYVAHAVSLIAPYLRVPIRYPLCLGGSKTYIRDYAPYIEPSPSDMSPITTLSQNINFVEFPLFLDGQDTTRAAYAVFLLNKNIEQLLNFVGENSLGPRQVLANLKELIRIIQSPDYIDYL
Experiment: two-hybrid; GAL4-based Y2H; VPS38-BD and ATG6-AD co-expressed in yeast; growth on synthetic complete medium -L-W-H with 3-amino-1,2,4-triazole (+3AT)

B1: Arabidopsis ATG6, fused to the GAL4 activation domain (protein, UniProt Q9M367 1-517)
chain: MRKEEIPDKSRTIPIDPNLPKWVCQNCHHSLTIVGVDSYAGKFFNDPPPSATQGSSIHGANSVLGSTRMDNSFVVLPRHKPPQSQGIPPRPRGASSPQPDATQSGKAMEESFVVVYKSEPVSDSGGSHNLSLEVGQNGPLHSNTSGFNATINVLTRAFDIARTQTQVEQPLCLECMRVLSDKLEKEVEDVTRDVEAYEACVQRLEGETQDVLSEADFLKEKKKIEEEERKLVAAIEETEKQNAEVNHQLKELEFKGNRFNELEDRYWQEFNNFQFQLIAHQEERDAILAKIEVSQAHLELLNKTNVLIDAFPIRNDGEFGTINNFRLGRLPAIKVEWDEINAAWGQACLLLHTMCNYFRPKFQCQVKIQPMGSYPRIVDSNNETYELFGPVNLFWSTRYDKAMTLYLMCLKDFADFANSKDQENNIPPDNCLNLPYKIEKDKVLGYSITQSFNKQESWTKALKYTLCNLKWALYWFVGNTNFQPLSATVSLPSNISAAGSLYAKRGPDSSKPSCKKT
In the case of B1, the binding is reported as “binds”.
